In general, cell viability refers to a read-out of living cells in per cent, often relative to untreated cells.

From the supplement of paper PMC11150407 come the findings set out here.

Each structure is given as a SMILES string. Structures can show the parent of a compound that is named as a salt. Hit rate of the full screen: of about 2,100 compounds, about 180 (8.6%) showed an effect of 50% or more. Some of the results follow.

For this test, the system named is MOLM1 and UCSD/AML1 (averaged). Put plainly: cell viability relative to DMSO control (POC); higher = less growth inhibition. To be noted: 1 µM; 72 h. The method, then: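 Primary viability screen in the 3q26 EVI1-high AML cell lines MOLM1 and UCSD/AML1 (1.5e3 cells/well, 384-well), compounds at 1 uM for 72 h. ATP CellTiter-Glo read-out given as percent of viable cells over DMSO control (POC), averaged over duplicates. DMSO was the negative control and 5 uM etoposide the positive control. This mapping covers the MicroSource Spectrum and Selleck anticancer libraries (drug names).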
As for `CC1(C)CC[C@]2(C(=O)O)CC[C@]3(C)C(=CC[C@@H]4[C@@]5(C)CC[C@H](O)[C@@](C)(CO)[C@@H]5CC[C@]43C)[C@@H]2C1`, the cell viability turned out to be 89.4%. The value for `CC(C)/C(O)=C1/C(=O)O[C@@H](c2ccoc2)[C@]2(C)C(O)[C@@H](O)[C@@]34OC5(C)OC67CC(C)(C(O)[C@]6(O)[C@@H](O)[C@]3(O5)C12)[C@H](CC(=O)O)[C@]74C` (stereo not given in full) was 93.3%. Consider `O=C(NOC[C@H](O)CO)c1ccc(F)c(F)c1Nc1ccc(I)cc1F`, for which the cell viability turned out to be 49.5%.

Turning to `O=C1CC2(CCCC2)CC(=O)N1CCCCN1CCN(c2ncccn2)CC1`, the cell viability came to 103%. For the molecule `CC[C@H]1OC(=O)[C@H](C)[C@@H](O[C@H]2C[C@@](C)(OC)[C@@H](O)[C@H](C)O2)[C@H](C)[C@@H](O[C@@H]2O[C@H](C)C[C@H](N(C)C)[C@H]2O)[C@](C)(O)C[C@@H](C)[C@@H]2N[C@@H](COCCOC)O[C@H]([C@H]2C)[C@]1(C)O`, the cell viability worked out at 94.2%. `O=c1cc[nH]c(=S)[nH]1`: the cell viability worked out at 101%.

As to `CC(=O)O[C@@H]1CC2C(C)(C)C(=O)C3OC3[C@]2(C)C2CC[C@@]3(C)[C@H](c4ccoc4)OC(=O)C4OC43[C@@]21C` (stereo not given in full), the cell viability turned out to be 95.3%.

For `Nc1ccc(S(=O)(=O)Nc2ccnn2-c2ccccc2)cc1`, the cell viability was 107%. In the case of `CN1CCN(CCOc2cc(OC3CCOCC3)c3c(Nc4c(Cl)ccc5c4OCO5)ncnc3c2)CC1` [Saracatinib (AZD0530)], the cell viability was 47.7%. The same measure for `CO/N=C(\C(=O)N[C@@H]1C(=O)N2C(C(=O)O)=C(COC(N)=O)CS[C@H]12)c1ccco1`: 104%; for `CCC(=O)c1c(O)cc(O)cc1O`: 84.3%. Turning to `CC1Cc2ccccc2N1NC(=O)c1ccc(Cl)c(S(N)(=O)=O)c1` (stereo not given), the cell viability turned out to be 96.4%. For `CC(C)C[C@@H]1NC(=O)[C@H](CCCN)NC(=O)[C@H](C(C)C)NC(=O)[C@H](Cc2ccc(O)cc2)N[C@@H](CCC(=O)O)C(=O)N[C@@H](CC(N)=O)C(=O)[C@@H](Cc2ccccc2)NC(=O)[C@H](Cc2ccccc2)NC(=O)[C@@H]2CCCN2C(=O)[C@@H](Cc2ccccc2)NC1=O`, the cell viability was 13%. With `C[C@H](CCC(=O)O)[C@H]1CC[C@H]2[C@@H]3CC[C@@H]4C[C@H](O)CC[C@]4(C)[C@H]3C[C@H](O)[C@]12C`, the cell viability is 110%. With `COc1ccc2cc(C(C)C(=O)O)ccc2c1` (stereo not given), the cell viability is 70.4%. The same measure for `Cc1cc(CC(=O)O)n(C)c1C(=O)c1ccc(Cl)cc1`: 97%; for `CCCCCCCCCCCCCCCC(=O)O[C@@H]1[C@@H](O)[C@@H](O)[C@@H]([C@H](NC(=O)[C@@H]2C[C@@H](CCC)CN2C)[C@H](C)Cl)O[C@@H]1SC`: 95.3%; for `O=C(O)C1=CCCNC1`: 111%. `COC(=O)CC[C@@H](C)[C@H]1CC[C@H]2[C@@H]3[C@H](O)C[C@@H]4C[C@H](O)CC[C@]4(C)[C@H]3C[C@H](O)[C@]12C`: the cell viability was 95.2%. The same measure for `CC12CCC(CC1)C(C)(C)O2`: 89.1%; for `C[C@@H]1C[C@H]2[C@@H]3CCC4=CC(=O)C=C[C@]4(C)[C@@]3(F)[C@@H](O)C[C@]2(C)[C@@]1(O)C(=O)CO`: 73%; for `C[C@@H]1C[C@H]2[C@@H]3CCC4=CC(=O)C=C[C@]4(C)[C@@]3(F)[C@@H](O)C[C@]2(C)[C@@]1(O)C(=O)CO` [Dexamethasone]: 57.3%. As to `OC1(c2ccc(Cl)c(C(F)(F)F)c2)CCN(CCCC(c2ccc(F)cc2)c2ccc(F)cc2)CC1`, the cell viability came to 85.5%. With `O=C(O)CCCc1ccccc1`, the cell viability was 90.8%.

Turning to `NC1=NCCN1CC(=O)O`, the cell viability worked out at 95.6%.

Regarding `CC1(C)O[C@@H]2C[C@H]3[C@@H]4CCC5=CC(=O)C=C[C@]5(C)[C@@]4(F)[C@@H](O)C[C@]3(C)[C@]2(C(=O)CO)O1`, the cell viability turned out to be 71.1%. Turning to `CC1(C)O[C@@H]2C[C@H]3[C@@H]4CCC5=CC(=O)C=C[C@]5(C)[C@@]4(F)[C@@H](O)C[C@]3(C)[C@]2(C(=O)CO)O1` [Triamcinolone Acetonide], the cell viability was 70.6%. On to `C1CCN2C[C@@H]3C[C@@H](CN4CCCC[C@@H]34)[C@H]2C1`, for which the cell viability turned out to be 99.5%. Take `CC1CC(OC(=O)C(O)c2ccccc2)CC(C)(C)N1C` (stereo not given): the cell viability is 113%. The same measure for `OC[C@H]1O[C@@H](n2cnc3c(NCc4ccco4)ncnc32)[C@H](O)[C@@H]1O`: 5.88%; for `Cc1nnc(NS(=O)(=O)c2ccc(N)cc2)s1`: 103%; for `FC(F)c1nc2ccccc2n1-c1nc(N2CCOCC2)nc(N2CCOCC2)n1`: 26.8%. `CCN1CCN(c2cc3c(cc2F)c(=O)c(C(=O)O)cn3C2CC2)CC1`: the cell viability was found to be 98.3%. Turning to `COc1cc(NS(C)(=O)=O)ccc1Nc1c2ccccc2nc2ccccc12`, the cell viability is 12.8%.

Turning to `C[C@H]1C[C@H]2[C@@H]3CCC4=CC(=O)C=C[C@]4(C)[C@@]3(F)[C@@H](O)C[C@]2(C)[C@@]1(O)C(=O)CO`, the cell viability is 69.9%. For `CCN1CCN(C(=O)N[C@@H](C(=O)N[C@@H]2C(=O)N3C(C(=O)O)=C(CSc4nnnn4C)CS[C@H]23)c2ccc(O)cc2)C(=O)C1=O`, the cell viability was 95.7%. The same measure for `CN(C)CCOc1ccc(/C(=C(/CCCl)c2ccccc2)c2ccccc2)cc1` [Toremifene Citrate (Fareston, Acapodene)]: 92.4%; for `CN(C)CCOc1ccc(/C(=C(/CCCl)c2ccccc2)c2ccccc2)cc1`: 85.8%; for `Cc1ccc(Cl)c(Nc2ccccc2C(=O)O)c1Cl`: 103%. As for `CO[C@@]12[C@H](COC(N)=O)C3=C(C(=O)C(C)=C(N)C3=O)N1C[C@@H]1N[C@@H]12`, the cell viability is 13%. The value for `CC(C(=O)O)c1ccc(N2Cc3ccccc3C2=O)cc1` (stereo not given) was 100%; that for `O=c1c(-c2ccc(O)cc2)coc2c([C@@H]3O[C@H](CO)[C@@H](O)[C@H](O)[C@H]3O)c(O)ccc12` was 120%. Take `O=C(O)C(S)C(S)C(=O)O` (stereo not given): the cell viability stood at 115%. The value for `CCn1nc(C(=O)O)c(=O)c2cc3c(cc21)OCO3` was 96%; that for `Cc1cc(/C=C/c2ccc3cc(N(C)C)ccc3[n+]2C)c(C)n1-c1ccccc1` was 29.3%. The value for `CCOC(=O)CCCCCCCCCCCCC1C=CCC1` (stereo not given) was 103%; that for `CC(C)=CCC/C(C)=C/CC/C(C)=C/CC/C(C)=C/CC/C(C)=C/CC/C(C)=C/CC/C(C)=C/CC/C(C)=C/CC/C(C)=C/CO` was 83.6%; that for `O=C(O[C@@H]1Cc2c(O)cc(O)cc2O[C@@H]1c1cc(O)c(=O)c2c(O)c(O)cc([C@H]3Oc4cc(O)cc(O)c4C[C@H]3O)c2c1)c1cc(O)c(O)c(O)c1` was 101%. The same measure for `COC(=O)CC[C@@H](C)[C@H]1CC[C@H]2[C@@H]3CC[C@@H]4C[C@H](O)CC[C@]4(C)[C@H]3C[C@H](O)[C@]12C`: 97.4%; for `C[C@@H]1O[C@@H](O[C@H]2[C@H](O[C@H]3CC[C@@]4(C)[C@@H](CC[C@]5(C)[C@@H]4CC=C4[C@@H]6CC(C)(C)CC[C@]6(C(=O)O[C@@H]6O[C@H](CO[C@@H]7O[C@H](CO)[C@@H](O[C@@H]8O[C@@H](C)[C@H](O)[C@@H](O)[C@H]8O)[C@H](O)[C@H]7O)[C@@H](O)[C@H](O)[C@H]6O)CC[C@]45C)[C@]3(C)CO)OC[C@H](O)[C@@H]2O)[C@H](O)[C@H](O)[C@H]1O`: 89.5%; for `CNC(=O)c1cc(COc2nnc(Nc3ccc(Cl)cc3)c3ccoc23)ccn1` [Telatinib (BAY 57-9352)]: 94.5%. As for `CC(C)NC[C@@H](O)COc1cccc2ccccc12`, the cell viability came to 102%.

With `CCc1cn([C@H]2C[C@H](O)[C@@H](CO)O2)c(=O)[nH]c1=O`, the cell viability turned out to be 91.5%. The same measure for `COCC[n+]1c2c(n(Cc3cnccn3)c1C)C(=O)c1ccccc1C2=O` [YM155 (Sepantronium Bromide)]: 3.93%; for `C[C@@H]1CCN(C(=O)CC#N)C[C@@H]1N(C)c1ncnc2[nH]ccc12`: 72.1%; for `CN(C)[C@@H]1C(O)=C(C(=O)NCN2CCCC2)C(=O)[C@@]2(O)C(O)=C3C(=O)c4c(O)cccc4[C@@](C)(O)[C@H]3C[C@@H]12`: 82.6%.

Regarding `Cc1c(N(C)CS(=O)(=O)O)c(=O)n(-c2ccccc2)n1C`, the cell viability was 92.4%. The value for `O=c1[nH]c(=O)n(C2CCCO2)cc1F` (stereo not given) was 99.8%.

Take `CC(NCCC(c1ccccc1)c1ccccc1)c1ccccc1` (stereo not given): the cell viability was determined as 104%. In the case of `C1CNCCN1`, the cell viability is 100%. The value for `COc1c2occc2c(OC)c2c(=O)cc(C)oc12` was 93.9%; that for `Nc1cc(C(Cl)=C(Cl)Cl)c(S(N)(=O)=O)cc1S(N)(=O)=O` was 101%. Consider `C[C@H](CCC(=O)O)[C@H]1CC[C@H]2[C@@H]3[C@H](O)C[C@@H]4C[C@H](O)CC[C@]4(C)[C@H]3CC[C@]12C`, for which the cell viability was 108%. `O=C(/C=C/c1ccc(O)c(O)c1)OCCc1ccccc1`: the cell viability worked out at 64.5%. The same measure for `NCC(O)CC(=O)O` (stereo not given): 101%; for `NNc1nncc2ccccc12`: 99.9%.

For `CC(=O)OCC(CCn1cnc2cnc(N)nc21)COC(C)=O`, the cell viability amounted to 99.8%. The value for `Cc1nc(=O)c2cc(CN(C)c3ccc(C(=O)N[C@@H](CCC(=O)O)C(=O)O)s3)ccc2[nH]1` [Raltitrexed (Tomudex)] was 102%; that for `CN1CCN(CCCN2c3ccccc3Sc3ccc(Cl)cc32)CC1` was 102%.

For the molecule `O=C1c2ccccc2C(=O)c2c1ccc(O)c2O`, the cell viability was 95.7%. Consider `CC(=O)O[C@H]1CC[C@@]2(C)[C@@H](CC[C@@H]3[C@@H]2CC(=O)[C@]2(C)[C@@H]4[C@H](C[C@@H]32)O[C@]2(CC[C@@H](C)CO2)[C@H]4C)C1`, for which the cell viability was found to be 88.1%. The value for `CS(=O)(=O)N1CCc2c(-c3cnc(N)nc3)nc(N3CCOCC3)nc21` was 47.5%; that for `COC(=O)/C=C/C(C)=C\C=C\C(C)=C\C=C\C=C(C)\C=C\C=C(C)\C=C\C(=O)O` was 104%; that for `CC(=O)[C@]1(O)Cc2c(O)c3c(c(O)c2[C@@H](O[C@H]2C[C@H](N)[C@H](O)[C@H](C)O2)C1)C(=O)c1ccccc1C3=O` [Idarubicin HCl] was 1.49%.

Regarding `CC(C)C[C@@H](NC(=O)[C@H](C)NC(=O)CNC(=O)[C@@H](NC=O)C(C)C)C(=O)N[C@@H](C)C(=O)N[C@@H](C(=O)N[C@H](C(=O)N[C@H](C(=O)N[C@@H](Cc1c[nH]c2ccccc12)C(=O)N[C@H](CC(C)C)C(=O)N[C@@H](Cc1c[nH]c2ccccc12)C(=O)N[C@H](CC(C)C)C(=O)N[C@@H](Cc1c[nH]c2ccccc12)C(=O)N[C@H](CC(C)C)C(=O)N[C@@H](Cc1c[nH]c2ccccc12)C(=O)NCCO)C(C)C)C(C)C)C(C)C`, the cell viability is 5.86%.
